This note sets out measurements from the supplement of paper PMC11006884.

By UniProt entry, the sequences of proteins in these tests, tags left out. Where a name states a change or a piece, a line headed by the entry shows the natural chain unless it says otherwise.
UniProt Q15691: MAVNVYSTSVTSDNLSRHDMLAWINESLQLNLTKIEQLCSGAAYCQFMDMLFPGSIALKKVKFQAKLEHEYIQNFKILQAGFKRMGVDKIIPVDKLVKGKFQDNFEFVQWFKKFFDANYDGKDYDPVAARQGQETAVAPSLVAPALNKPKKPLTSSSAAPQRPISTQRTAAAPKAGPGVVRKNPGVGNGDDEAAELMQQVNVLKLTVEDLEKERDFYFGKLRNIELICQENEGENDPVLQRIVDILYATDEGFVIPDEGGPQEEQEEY
UniProt Q52LJ0: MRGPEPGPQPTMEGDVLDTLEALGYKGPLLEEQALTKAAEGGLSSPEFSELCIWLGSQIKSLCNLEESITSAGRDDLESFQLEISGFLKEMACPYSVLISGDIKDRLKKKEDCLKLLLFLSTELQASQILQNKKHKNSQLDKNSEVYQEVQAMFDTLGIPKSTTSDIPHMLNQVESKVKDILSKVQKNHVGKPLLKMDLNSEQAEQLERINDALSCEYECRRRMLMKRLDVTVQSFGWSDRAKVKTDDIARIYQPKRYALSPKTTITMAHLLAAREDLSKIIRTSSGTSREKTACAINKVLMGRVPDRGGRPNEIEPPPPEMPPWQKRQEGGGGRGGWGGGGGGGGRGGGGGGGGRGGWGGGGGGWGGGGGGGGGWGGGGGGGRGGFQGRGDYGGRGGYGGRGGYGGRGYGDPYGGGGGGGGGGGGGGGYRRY
UniProt Q15738: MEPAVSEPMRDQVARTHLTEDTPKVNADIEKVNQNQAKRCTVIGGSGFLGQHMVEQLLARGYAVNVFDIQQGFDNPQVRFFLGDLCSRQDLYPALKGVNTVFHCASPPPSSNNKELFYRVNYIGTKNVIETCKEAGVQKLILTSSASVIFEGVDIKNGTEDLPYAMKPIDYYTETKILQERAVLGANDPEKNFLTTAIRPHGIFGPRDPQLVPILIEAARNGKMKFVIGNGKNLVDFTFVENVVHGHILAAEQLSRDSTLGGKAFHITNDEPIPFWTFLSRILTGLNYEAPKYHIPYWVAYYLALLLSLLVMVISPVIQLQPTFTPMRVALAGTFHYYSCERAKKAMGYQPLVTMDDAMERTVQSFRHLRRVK
UniProt Q15417: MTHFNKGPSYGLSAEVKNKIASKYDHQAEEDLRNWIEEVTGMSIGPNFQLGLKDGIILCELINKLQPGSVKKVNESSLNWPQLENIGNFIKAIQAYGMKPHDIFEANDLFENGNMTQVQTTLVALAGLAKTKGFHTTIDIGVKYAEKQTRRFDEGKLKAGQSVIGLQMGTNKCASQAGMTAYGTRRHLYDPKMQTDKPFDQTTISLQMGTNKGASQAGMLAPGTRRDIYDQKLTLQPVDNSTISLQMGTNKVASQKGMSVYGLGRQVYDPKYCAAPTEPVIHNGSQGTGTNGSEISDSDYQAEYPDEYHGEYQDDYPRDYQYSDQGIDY
UniProt Q15599: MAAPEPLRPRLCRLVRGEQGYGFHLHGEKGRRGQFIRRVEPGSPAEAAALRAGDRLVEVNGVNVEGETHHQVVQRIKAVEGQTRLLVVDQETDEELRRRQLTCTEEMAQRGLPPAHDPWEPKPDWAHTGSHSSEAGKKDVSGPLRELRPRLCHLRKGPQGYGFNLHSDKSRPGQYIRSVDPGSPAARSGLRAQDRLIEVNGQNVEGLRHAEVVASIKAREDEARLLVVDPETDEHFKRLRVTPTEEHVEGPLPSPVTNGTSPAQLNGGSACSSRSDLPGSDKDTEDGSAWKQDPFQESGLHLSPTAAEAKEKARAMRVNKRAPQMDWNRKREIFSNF
UniProt Q2T9J0: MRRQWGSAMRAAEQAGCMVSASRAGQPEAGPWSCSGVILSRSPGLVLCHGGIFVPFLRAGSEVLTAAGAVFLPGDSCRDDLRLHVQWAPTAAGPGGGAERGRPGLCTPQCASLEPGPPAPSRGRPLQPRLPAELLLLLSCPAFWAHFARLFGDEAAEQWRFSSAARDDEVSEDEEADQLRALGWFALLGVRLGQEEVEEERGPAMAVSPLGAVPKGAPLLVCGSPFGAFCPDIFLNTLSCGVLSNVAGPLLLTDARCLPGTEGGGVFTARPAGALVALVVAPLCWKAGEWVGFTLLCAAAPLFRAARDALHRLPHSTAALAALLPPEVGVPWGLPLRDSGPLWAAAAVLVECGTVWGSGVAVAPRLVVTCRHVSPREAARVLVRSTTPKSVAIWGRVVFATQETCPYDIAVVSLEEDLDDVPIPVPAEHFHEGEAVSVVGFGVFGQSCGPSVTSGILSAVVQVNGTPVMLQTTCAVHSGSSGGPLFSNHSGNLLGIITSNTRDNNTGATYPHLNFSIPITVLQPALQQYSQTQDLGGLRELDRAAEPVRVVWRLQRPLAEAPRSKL
UniProt Q2NL82: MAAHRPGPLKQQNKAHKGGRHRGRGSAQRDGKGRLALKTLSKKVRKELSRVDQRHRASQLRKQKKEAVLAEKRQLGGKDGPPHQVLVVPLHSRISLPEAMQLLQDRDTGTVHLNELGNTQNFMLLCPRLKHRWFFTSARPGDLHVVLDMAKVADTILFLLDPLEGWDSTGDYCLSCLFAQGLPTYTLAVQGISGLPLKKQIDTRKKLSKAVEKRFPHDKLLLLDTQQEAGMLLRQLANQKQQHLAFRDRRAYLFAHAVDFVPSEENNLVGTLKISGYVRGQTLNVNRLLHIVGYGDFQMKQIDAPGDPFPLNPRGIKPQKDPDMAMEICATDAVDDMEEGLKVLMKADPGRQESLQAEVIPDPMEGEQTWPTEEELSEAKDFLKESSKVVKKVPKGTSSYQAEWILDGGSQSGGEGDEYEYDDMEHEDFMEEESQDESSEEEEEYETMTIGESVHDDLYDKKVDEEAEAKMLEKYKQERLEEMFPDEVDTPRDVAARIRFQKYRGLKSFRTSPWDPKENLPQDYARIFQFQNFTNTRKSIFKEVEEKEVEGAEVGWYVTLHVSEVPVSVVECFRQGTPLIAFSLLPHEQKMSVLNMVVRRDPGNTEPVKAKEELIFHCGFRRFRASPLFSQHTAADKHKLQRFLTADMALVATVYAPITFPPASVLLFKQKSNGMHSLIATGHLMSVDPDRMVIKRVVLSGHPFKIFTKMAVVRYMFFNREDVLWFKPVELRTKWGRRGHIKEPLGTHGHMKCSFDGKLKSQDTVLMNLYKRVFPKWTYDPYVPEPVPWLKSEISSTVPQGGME
UniProt Q15029: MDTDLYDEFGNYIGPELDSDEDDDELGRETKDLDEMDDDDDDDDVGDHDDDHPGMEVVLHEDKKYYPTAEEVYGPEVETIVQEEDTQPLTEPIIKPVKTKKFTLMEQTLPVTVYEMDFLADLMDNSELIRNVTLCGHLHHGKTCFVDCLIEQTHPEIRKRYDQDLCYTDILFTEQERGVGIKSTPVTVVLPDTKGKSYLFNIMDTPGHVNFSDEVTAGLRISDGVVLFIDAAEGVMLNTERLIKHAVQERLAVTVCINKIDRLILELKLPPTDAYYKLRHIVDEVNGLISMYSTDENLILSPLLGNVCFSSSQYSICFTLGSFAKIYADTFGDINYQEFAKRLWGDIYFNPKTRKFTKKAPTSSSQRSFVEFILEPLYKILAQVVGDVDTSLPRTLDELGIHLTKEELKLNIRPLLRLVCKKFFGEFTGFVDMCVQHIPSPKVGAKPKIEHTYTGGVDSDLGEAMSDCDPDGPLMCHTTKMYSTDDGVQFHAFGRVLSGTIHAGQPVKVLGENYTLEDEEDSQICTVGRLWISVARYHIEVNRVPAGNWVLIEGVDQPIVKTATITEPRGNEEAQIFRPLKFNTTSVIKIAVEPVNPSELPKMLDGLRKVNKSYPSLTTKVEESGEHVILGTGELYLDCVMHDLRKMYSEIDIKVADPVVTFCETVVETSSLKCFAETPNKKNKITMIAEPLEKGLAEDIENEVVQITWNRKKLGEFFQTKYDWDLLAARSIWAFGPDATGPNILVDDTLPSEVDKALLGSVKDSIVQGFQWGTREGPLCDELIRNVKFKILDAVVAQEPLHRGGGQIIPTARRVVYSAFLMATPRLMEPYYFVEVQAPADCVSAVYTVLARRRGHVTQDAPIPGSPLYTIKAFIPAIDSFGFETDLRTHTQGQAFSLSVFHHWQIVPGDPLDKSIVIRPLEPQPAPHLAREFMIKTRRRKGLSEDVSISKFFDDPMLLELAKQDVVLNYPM
UniProt Q49AM1: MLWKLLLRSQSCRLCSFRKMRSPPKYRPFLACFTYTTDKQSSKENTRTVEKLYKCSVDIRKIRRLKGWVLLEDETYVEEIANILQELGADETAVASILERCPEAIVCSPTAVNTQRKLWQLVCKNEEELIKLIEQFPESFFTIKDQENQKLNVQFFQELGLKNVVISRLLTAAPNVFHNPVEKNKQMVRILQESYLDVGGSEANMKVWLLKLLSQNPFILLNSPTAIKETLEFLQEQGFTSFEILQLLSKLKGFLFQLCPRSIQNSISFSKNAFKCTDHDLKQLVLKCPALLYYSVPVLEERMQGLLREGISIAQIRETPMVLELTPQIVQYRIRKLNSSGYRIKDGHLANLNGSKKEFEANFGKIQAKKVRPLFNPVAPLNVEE
UniProt Q2NKX8: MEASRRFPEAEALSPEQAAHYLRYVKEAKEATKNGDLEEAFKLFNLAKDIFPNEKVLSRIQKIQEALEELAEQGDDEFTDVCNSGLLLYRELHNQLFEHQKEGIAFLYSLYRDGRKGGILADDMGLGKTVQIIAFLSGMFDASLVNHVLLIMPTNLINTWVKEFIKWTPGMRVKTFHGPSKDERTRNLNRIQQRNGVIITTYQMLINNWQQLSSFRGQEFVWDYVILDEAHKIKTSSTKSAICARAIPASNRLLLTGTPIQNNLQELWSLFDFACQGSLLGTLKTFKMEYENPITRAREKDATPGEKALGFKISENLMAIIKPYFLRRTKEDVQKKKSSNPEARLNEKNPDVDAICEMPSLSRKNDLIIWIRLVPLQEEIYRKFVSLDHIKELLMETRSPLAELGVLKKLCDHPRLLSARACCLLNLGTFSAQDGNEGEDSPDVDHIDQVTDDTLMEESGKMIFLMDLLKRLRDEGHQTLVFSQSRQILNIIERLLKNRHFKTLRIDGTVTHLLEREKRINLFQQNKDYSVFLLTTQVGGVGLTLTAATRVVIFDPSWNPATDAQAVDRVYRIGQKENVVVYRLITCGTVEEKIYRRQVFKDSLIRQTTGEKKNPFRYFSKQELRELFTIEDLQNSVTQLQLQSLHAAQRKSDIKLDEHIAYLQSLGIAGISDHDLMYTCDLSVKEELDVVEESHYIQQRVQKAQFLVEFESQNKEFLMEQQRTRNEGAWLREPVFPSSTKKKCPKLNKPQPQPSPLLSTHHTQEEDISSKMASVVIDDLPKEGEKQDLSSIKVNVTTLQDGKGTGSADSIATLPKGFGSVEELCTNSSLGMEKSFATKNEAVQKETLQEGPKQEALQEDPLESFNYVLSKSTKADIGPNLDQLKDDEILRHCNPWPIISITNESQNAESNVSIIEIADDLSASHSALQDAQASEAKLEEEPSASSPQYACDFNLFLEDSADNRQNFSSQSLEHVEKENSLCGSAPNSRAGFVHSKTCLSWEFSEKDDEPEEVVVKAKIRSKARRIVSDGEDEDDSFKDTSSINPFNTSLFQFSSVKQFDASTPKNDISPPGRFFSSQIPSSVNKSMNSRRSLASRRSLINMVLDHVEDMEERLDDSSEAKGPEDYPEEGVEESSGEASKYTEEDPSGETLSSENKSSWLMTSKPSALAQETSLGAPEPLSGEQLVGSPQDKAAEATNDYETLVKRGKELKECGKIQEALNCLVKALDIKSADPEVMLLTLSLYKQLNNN
UniProt Q53H82: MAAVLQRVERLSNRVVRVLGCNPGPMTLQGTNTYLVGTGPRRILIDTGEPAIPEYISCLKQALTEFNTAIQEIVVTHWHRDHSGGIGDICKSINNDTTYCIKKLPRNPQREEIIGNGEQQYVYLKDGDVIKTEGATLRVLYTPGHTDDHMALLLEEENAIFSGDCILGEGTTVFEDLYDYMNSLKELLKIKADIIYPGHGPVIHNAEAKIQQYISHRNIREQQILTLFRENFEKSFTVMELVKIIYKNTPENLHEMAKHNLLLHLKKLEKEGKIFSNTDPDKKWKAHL
UniProt Q49AR2: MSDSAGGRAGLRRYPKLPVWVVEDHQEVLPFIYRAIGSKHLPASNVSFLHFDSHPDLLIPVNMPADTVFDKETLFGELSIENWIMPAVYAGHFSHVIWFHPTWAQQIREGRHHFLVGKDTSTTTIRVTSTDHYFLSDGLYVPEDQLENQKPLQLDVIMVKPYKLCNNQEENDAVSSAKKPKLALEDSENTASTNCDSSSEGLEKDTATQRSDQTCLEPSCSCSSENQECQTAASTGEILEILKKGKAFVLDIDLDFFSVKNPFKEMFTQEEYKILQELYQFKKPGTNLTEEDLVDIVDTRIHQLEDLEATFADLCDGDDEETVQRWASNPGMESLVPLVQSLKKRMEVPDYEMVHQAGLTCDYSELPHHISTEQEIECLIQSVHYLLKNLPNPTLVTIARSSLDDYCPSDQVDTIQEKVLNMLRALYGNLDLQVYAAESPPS

The list shows a part of the results, in another mix than the full data.

Compound in the assay: COC(=O)C#Cc1ccccc1 [methyl 3-phenylpropiolate]
In words: log2 ratio of iodoacetamide-alkyne labeling of the cysteine site, DMSO over compound (competition); higher = stronger covalent engagement of the cysteine by the compound, active = 1 or more. The note with it: 500 µM; treatment time 1 h; system: HEK293T cell lysate. In short, it runs like this: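 HEK293T lysate at 2 mg/mL was treated with vehicle or electrophile (500 µM) for 1 h at ambient temperature, then labelled with iodoacetamide alkyne (1 h), clicked to sCIP-TMT reagents, pooled, digested with trypsin overnight at 37 °C, enriched on streptavidin and eluted with acid. Peptides were analysed by Orbitrap Eclipse LC-MS/MS with FAIMS and quantified in FragPipe, using duplicate channels and three replicates, with cysteines quantified in only one replicate excluded. The log2 competition ratio for each cysteine is the mean control-channel reporter intensity divided by the mean compound-channel reporter intensity.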
Turning to LLGL1 C697 (UniProt Q15334), the “log2 ratio of iodoacetamide-alkyne labeling” value (“log2 ratio” for short) is inactive: 0.999. As for LLGL1 C725 (UniProt Q15334), the figure is inactive: -0.031; as for UniProt Q16512_C602, inactive: 0.0536. Next, MAPRE1 C228 (UniProt Q15691): inactive: 0.00341; UniProt Q567V2_C198: inactive: 0.342. Next, CCDC6 C27 (UniProt Q16204): inactive: 0.255; TAF12 C143 (UniProt Q16514): inactive: 0.37; ETFDH C118 (UniProt Q16134): inactive: 0.00175. On to EEA1 C1405 (UniProt Q15075), for which the “log2 ratio” value is inactive: 0.0817. With EEA1 C1402 (UniProt Q15075), the “log2 ratio” value is inactive: 0.0817.

Take FAM98B C63 (UniProt Q52LJ0): the “log2 ratio” value was inactive: 0.105.

As to UniProt Q4ZIN3_C129, the “log2 ratio” value was inactive: 0.182. On to NSDHL C86 (UniProt Q15738), for which the “log2 ratio” value is inactive: -0.0927. Take CNN3 C59 (UniProt Q15417): the “log2 ratio” value is inactive: -0.0278. Next, RABEP1 C533 (UniProt Q15276): inactive: 0.143. Next, PON2 C283 (UniProt Q15165): inactive: 0.138; UniProt Q15365_C54: inactive: 0.397. IMMT C603 (UniProt Q16891): the “log2 ratio” value is inactive: 0.416. SAFB C404 (UniProt Q15424): the “log2 ratio” value was active: 1.14.

On to SLC9A3R2 C271 (UniProt Q15599), for which the “log2 ratio” value is inactive: 0.501. Next, DBN1 C308 (UniProt Q16643): inactive: -0.11; TBC1D10B C573 (UniProt Q4KMP7): inactive: 0.531; TYSND1 C77 (UniProt Q2T9J0): inactive: 0.164. As for UniProt Q3LXA3_C13, the figure is inactive: 0.218; as for TSR1 C126 (UniProt Q2NL82), inactive: 0.753; as for PCBP2 C118 (UniProt Q15366), inactive: 0.925. Next, SF1 C279 (UniProt Q15637): inactive: -0.0573; EFTUD2 C166 (UniProt Q15029): inactive: 0.158. As for MTERF2 C288 (UniProt Q49AM1), the “log2 ratio” value was inactive: -0.33. Next, ERCC6L C356 (UniProt Q2NKX8): inactive: 0.193.

As for UniProt Q15149_C3336, the “log2 ratio” value was inactive: 0.485. Next, LACTB2 C100 (UniProt Q53H82): inactive: 0.343. Next, SF3A1 C244 (UniProt Q15459): inactive: 0.0803. Take CDC37 C308 (UniProt Q16543): the “log2 ratio” value is inactive: 0.146. As for C5orf22 C195 (UniProt Q49AR2), the figure is inactive: 0.458; as for RBBP7 C97 (UniProt Q16576), inactive: 0.429; as for FAM98B C295 (UniProt Q52LJ0), inactive: 0.995. Next, UniProt Q15042_C873: inactive: 0.165.
